This is one part of the list. Shown are side measurements of this screen, not its main read-out; they come without a call. Most of these compounds were active or inconclusive in the main read-out, so they are no random draw. Words in brackets tell the shape of the fitted curve; partial curves, single points and poor fits give uncertain potencies.
Test: IkB Signaling
Details: ABC-DLBCL IkBa-CBG/CBR dual luciferase ratio (green luciferase fused to IkBa over red control in OCI-Ly3 lymphoma cells), 4 h; measured here: control luc red channel unless noted
Summary of the method: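 Curves were fitted separately to fusion (green), unfused (red) and ratio luminescence, then classed by r2, magnitude and activity. Cells: OCI-Ly3, 4 h compound plus doxycycline at 37C; 10 uM MG-132 defined full response.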

Row | SMILES | AC50
1 | O=C(COc1ccc(S(=O)(=O)N2CCOCC2)cc1)Nc1ccc(Cl)c(C(F)(F)F)c1 | 31.6 µM [falling, single point]
2 | Cn1c(-n2c(CCN3C(=O)c4ccccc4C3=O)nc3ccccc3c2=O)nc2ccccc21 | 10 µM [falling, partial curve]
3 | CCC1CN(C(=O)N2CCC(C(=O)N(C)Cc3ccccc3)CC2)c2ccccc2O1 (stereo unspecified) | 15.8 µM [falling, single point]
4 | Cc1ccc2nc(CN3CCN(C(=O)Nc4cccc(C)c4C)CC3)oc2c1 | 31.6 µM [falling, single point]
5 | COC(=O)c1scc(-c2ccc(C)cc2)c1S(=O)(=O)Nc1c(C)cc(C)cc1C | 10 µM [falling, partial curve]
6 | COc1ccc(NC(=O)CN2C(=O)CC(c3ccco3)Sc3ccccc32)cc1OC (stereo unspecified) | 10 µM [falling, partial curve]
7 | Cc1ccc(-n2ncc(C(=O)NCCCN3CCc4ccccc4C3)c2C2CCN(C(=O)OC(C)(C)C)CC2)cc1C | 15.8 µM [falling, partial curve]
8 | CC(CNC(=O)CN1C(=O)COc2ccc(S(=O)(=O)N3CCCCC3)cc21)c1ccccc1 (stereo unspecified) | 39.8 µM [falling, single point]
9 | O=C(Nc1ccc(Cl)cc1)C1CCN(S(=O)(=O)c2ccc(Br)s2)CC1 | 20 µM [falling, partial curve]
10 | Cc1ccccc1C(=O)Nc1ccc(C(=O)OCc2cc(=O)n3nc(C4CC4)sc3n2)cc1 | 10 µM [falling, partial curve]
11 | CC1(C)Cc2cccc(OCC(=O)N3CCN(S(=O)(=O)c4ccc(F)cc4)CC3)c2O1 | 39.8 µM [falling, single point]
12 | CC1CN(C(=O)Nc2ccc(C(=O)NCCc3ccccc3Cl)cc2)c2ccccc2S1 (stereo unspecified) | 10 µM [falling, partial curve]
13 | CCOc1ccc(NC(=O)CC2C(=O)N(c3cccc(C)c3)C(=O)N2Cc2ccco2)cc1 (stereo unspecified) | 15.8 µM [falling, partial curve]
14 | Cn1cccc1C(=O)Nc1nccs1 | 12.6 µM [falling, partial curve]
15 | CCOC(=O)C1CCN(C(=O)c2cc3ccc4ccc(C)[nH]c4c3n2)CC1 | 39.8 µM [falling, single point]
16 | c1ccc(Cn2c(CSc3nnnn3-c3ccccc3)nc3ccccc32)cc1 | 12.6 µM [falling, partial curve]
17 | O=C(Cc1ccc(Cl)cc1)NCC(c1cccs1)S(=O)(=O)c1ccc(Cl)cc1 (stereo unspecified) | 15.8 µM [falling, partial curve]
18 | O=C(CSc1nnc(-c2ccccc2F)o1)N1CCc2ccccc21 | 39.8 µM [falling, single point]
19 | Cc1cccc(NC(=O)c2c(NC(=O)c3ccco3)sc3c2CCC(C(C)(C)C)C3)c1 (stereo unspecified) | 15.8 µM [falling, partial curve, poor fit]
20 | CCCCCCc1nc2c(=O)[nH]c3ccccc3c2o1 | 0.0126 µM [rising, full curve, poor fit]
21 | Fc1ccccc1N1CCN(c2c3c(nc4nncn24)CCC3)CC1 | 25.1 µM [falling, partial curve, poor fit]

Row | SMILES | AC50
22 | Cc1ccc(OCCCC(=O)Nc2sc3c(c2C(N)=O)CCCC3)cc1 | 15.8 µM [falling, partial curve]
23 | CCCCN(C)C(=O)Cn1ncc2c([nH]c3ccc(C)cc32)c1=O | 12.6 µM [falling, partial curve]
24 | Cc1ccc(C)c(Cn2c(=O)n(CCCC(=O)NCc3ccc4c(c3)OCO4)c(=O)c3sccc32)c1 | 10 µM [falling, partial curve]
25 | CCCSc1ncc(Cl)c(C(=O)N2CCN(c3ccc(OC)cc3)CC2)n1 | 15.8 µM [falling, single point]
26 | Oc1ccc(-c2nc(-c3ccc(O)c(O)c3)cs2)cc1 | 25.1 µM [falling, partial curve]
27 | COc1ccccc1N1CCN(C(=O)CSc2nc(-c3ccco3)cc(C(F)(F)F)n2)CC1 | 20 µM [falling, partial curve]
28 | CC(C)Oc1ccc(C(=O)N2CCCCC2CCN2CCCCC2)cc1 (stereo unspecified) | 3.16 µM [rising, single point]
29 | O=C(NCc1ccc(Cl)cc1Cl)c1cccc(N2CCCS2(=O)=O)c1 | 31.6 µM [falling, partial curve]
30 | CCCN(CCC)S(=O)(=O)c1cccc(C(=O)Nc2ccc3c(c2)OCO3)c1 | 31.6 µM [falling, partial curve]
31 | N#CC1=C(N)N2C(=C(C#N)C13CCN(Cc1ccccc1)CC3)Nc1ccccc12 | 12.6 µM [falling, partial curve]
32 | COc1cc2c(cc1NC(=O)C(C)Oc1ccccc1)oc1ccccc12 (stereo unspecified) | 12.6 µM [falling, partial curve]
33 | Cc1cc(C)c2c(N)c(C(=O)Nc3ccccc3C(F)(F)F)sc2n1 | 15.8 µM [falling, partial curve]
34 | CCCCCCC1CCC(C(=O)NC(C(=O)O)C(C)C)CC1 (stereo unspecified) | 0.2 µM [falling, full curve]
35 | O=C(CSc1oc(-c2ccco2)nc1S(=O)(=O)c1ccc(Cl)cc1)Nc1ccc(F)cc1 | 7.94 µM [falling, full curve, poor fit]
36 | COc1ccc2c(Sc3ccc(Cl)cc3)c(C(=O)N3CCCCC3)[nH]c2c1 | 15.8 µM [falling, partial curve]
37 | COc1ccc(N2CCN(CCCNC(=O)c3ccc4nc(N5CCCCC5)sc4c3)CC2)cc1 | 15.8 µM [falling, single point]
38 | CC1(C)CC(N2CCN(c3ccccc3)CC2)=CC(=[N+]2CCCC2)C1 | 15.8 µM [falling, partial curve]
39 | Cc1ccc(CNC(=O)c2ccc(CS(=O)(=O)c3ccccc3C)o2)cc1 | 25.1 µM [falling, single point]
40 | CCOCCN1CCN(c2c3c(nc4cc(-c5ccc(F)cc5)nn24)CCC3)CC1 | 12.6 µM [falling, partial curve]
41 | COc1ccccc1NC(=O)Cn1c(=O)n(-c2ccc(C)cc2)c(=O)c2c1cnn2C | 25.1 µM [falling, partial curve, poor fit]
42 | CCOc1ccc(NC(=O)c2oc3ccccc3c2NC(=O)c2cc3ccccc3o2)cc1 | 2 µM [falling, partial curve]

Reprinted, entries 33 to 34
Row | SMILES | AC50
33 | Cc1cc(C)c2c(N)c(C(=O)Nc3ccccc3C(F)(F)F)sc2n1 | 15.8 µM [falling, partial curve]
34 | CCCCCCC1CCC(C(=O)NC(C(=O)O)C(C)C)CC1 (stereo unspecified) | 0.2 µM [falling, full curve]

Going on with the list:

Row | SMILES | AC50
43 | O=C(Nc1ccc(Br)cc1)c1cccc(S(=O)(=O)N2CCc3ccccc32)c1 | 3.16 µM [falling, full curve]
44 | CCN1C(=O)c2cccc3c(S(=O)(=O)Nc4ccc(OC)cc4OC)ccc1c23 | 12.6 µM [falling, partial curve]
45 | Cc1nc2c(c(C)nn2-c2ccccc2)c(C)c1CCC(=O)NCc1ccccc1 | 25.1 µM [falling, partial curve]
46 | O=C(CSc1nnc(-c2ccco2)n1Cc1ccccc1)NC(=O)NCc1ccccc1 | 12.6 µM [falling, partial curve]
47 | Cc1cc2cc3c(cc2nc1SCC(=O)O)OCCO3 | 3.16 µM [falling, full curve, poor fit] [measured here: IkB-luc green channel]
48 | COc1ccc(C)cc1Nc1nc(N)c2cc(OC)c(OC)cc2n1 | 12.6 µM [falling, partial curve]
49 | COc1ccc(CN2CCCN(CC(=O)Nc3ccc4c(c3)OCCO4)S2(=O)=O)cc1 | 25.1 µM [falling, partial curve, poor fit]
50 | O=C(c1ccccc1C(=O)N1CCN(c2ccc(F)cc2)CC1)N1CCN(c2ccc(F)cc2)CC1 | 7.94 µM [falling, partial curve]
51 | COc1ccc(C2CC(=O)N(CC(=O)Nc3cccc(C)c3C)c3ccccc3S2)cc1OC (stereo unspecified) | 0.1 µM [falling, full curve, poor fit]
52 | COc1ccc(N(CC(=O)NCCc2ccc(Cl)cc2)S(=O)(=O)c2c(C)nn(C)c2C)cc1 | 15.8 µM [falling, single point]
53 | Cc1ccc(Sc2ccc(N3CCCC(C(=O)Nc4ccc(F)cc4F)C3)nn2)cc1 (stereo unspecified) | 3.98 µM [falling, full curve]
54 | Cc1nn(C)c2c1c(C(F)(F)F)cc(=O)n2CC(=O)N1CCC(C)CC1 | 20 µM [falling, partial curve]
55 | O=C(CSc1nnc(COc2cccc3cccnc23)o1)c1ccc(F)cc1 | 39.8 µM [falling, single point]
56 | CCC(=O)N1CCc2cc(S(=O)(=O)NC(C(=O)Nc3cc(OC)cc(OC)c3)C(C)C)ccc21 (stereo unspecified) | 25.1 µM [falling, single point]
57 | Cn1cnc(S(=O)(=O)N2CCCC(C(=O)Nc3ccc(OC(F)(F)F)cc3)C2)c1 (stereo unspecified) | 10 µM [falling, partial curve]
58 | COCCCNC(=O)c1ccc2nc(CCc3ccccc3)oc2c1 | 2.51 µM [rising, partial curve]
59 | C[C@@]12C=CC(=O)C=C1CC[C@@H]1[C@@H]2[C@H](O)C[C@]2(C)[C@@H]1CC[C@]2(O)C(=O)CO | 6.31 nM [rising, full curve] [measured here: IkB-luc green channel]
60 | Cc1c(Cl)ccc2sc(N3CCN(C(=O)CS(=O)(=O)c4ccccc4)CC3)nc12 | 31.6 µM [falling, partial curve]
61 | CCCN1CCN(CCCNC(=O)c2c(C)nn(-c3ccc(F)cc3)c2-n2cccc2)CC1 | 12.6 µM [falling, partial curve]

Among those listed so far, these contain a furan ring, fused or not:
Row | SMILES | AC50
6 | COc1ccc(NC(=O)CN2C(=O)CC(c3ccco3)Sc3ccccc32)cc1OC (stereo unspecified) | 10 µM [falling, partial curve]
13 | CCOc1ccc(NC(=O)CC2C(=O)N(c3cccc(C)c3)C(=O)N2Cc2ccco2)cc1 (stereo unspecified) | 15.8 µM [falling, partial curve]
19 | Cc1cccc(NC(=O)c2c(NC(=O)c3ccco3)sc3c2CCC(C(C)(C)C)C3)c1 (stereo unspecified) | 15.8 µM [falling, partial curve, poor fit]
27 | COc1ccccc1N1CCN(C(=O)CSc2nc(-c3ccco3)cc(C(F)(F)F)n2)CC1 | 20 µM [falling, partial curve]
32 | COc1cc2c(cc1NC(=O)C(C)Oc1ccccc1)oc1ccccc12 (stereo unspecified) | 12.6 µM [falling, partial curve]
35 | O=C(CSc1oc(-c2ccco2)nc1S(=O)(=O)c1ccc(Cl)cc1)Nc1ccc(F)cc1 | 7.94 µM [falling, full curve, poor fit]
39 | Cc1ccc(CNC(=O)c2ccc(CS(=O)(=O)c3ccccc3C)o2)cc1 | 25.1 µM [falling, single point]
42 | CCOc1ccc(NC(=O)c2oc3ccccc3c2NC(=O)c2cc3ccccc3o2)cc1 | 2 µM [falling, partial curve]
46 | O=C(CSc1nnc(-c2ccco2)n1Cc1ccccc1)NC(=O)NCc1ccccc1 | 12.6 µM [falling, partial curve]

Source: PubChem BioAssay AID445 (National Center for Advancing Translational Sciences (NCATS), 2006)
